Test results reported in patent US12729225B2, “Non-canonical SWI/SNF complex and uses thereof” (Dana-Farber Cancer Institute, Inc., priority 2018, dated 2026).

System: mSWI/SNF complexes
Assay: mSWI/SNF complex purification with HA-tagged baits and mass spectrometry (peptide counts)
Parameters: species or system human
[1] = 293_HA-BRD7 bait purification, mass spectrometry, total peptides per co-purified protein
[2] = 293_HA-BRD7 bait purification, mass spectrometry, unique peptides per co-purified protein

Molecule | Total [1] | Unique [2] | Total (293_HA-DPF2 purification, total peptides) | Unique (293_HA-DPF2 purification, unique peptides)
SYMPK (protein, UniProt Q92797 1-1274, looked up) Symplekin: MASGSGDSVTRRSVASQFFTQEEGPGIDGMTTSERVVDLLNQAALITNDSKITVLKQVQELIINKDPTLLDNFLDEIIAFQADKSIEVRKFVIGFIEEACKRDIELLLKLIANLNMLLRDENVNVVKKAILTMTQLYKVALQWMVKSRVISELQEACWDMVSAMAGDIILLLDSDNDGIRTHAIKFVEGLIVTLSPRMADSEIPRRQEHDISLDRIPRDHPYIQYNVLWEEGKAALEQLLKFMVHPAISSINLTTALGSLANIARQRPMFMSEVIQAYETLHANLPPTLAKSQVSSVRKNLKLHLLSVLKHPASLEFQAQITTLLVDLGTPQAEIARNMPSSKDTRKRPRDDSDSTLKKMKLEPNLGEDDEDKDLEPGPSGTSKASAQISGQSDTDITAEFLQPLLTPDNVANLVLISMVYLPEAMPASFQAIYTPVESAGTEAQIKHLARLMATQMTAAGLGPGVEQTKQCKEEPKEEKVVKTESVLIKRRLSAQGQAISVVGSLSSMSPLEEEAPQAKRRPEPIIPVTQPRLAGAGGRKKIFRLSDVLKPLTDAQVEAMKLGAVKRILRAEKAVACSGAAQVRIKILASLVTQFNSGLKAEVLSFILEDVRARLDLAFAWLYQEYNAYLAAGASGSLDKYEDCLIRLLSGLQEKPDQKDGIFTKVVLEAPLITESALEVVRKYCEDESRTYLGMSTLRDLIFKRPSRQFQYLHVLLDLSSHEKDKVRSQALLFIKRMYEKEQLREYVEKFALNYLQLLVHPNPPSVLFGADKDTEVAAPWTEETVKQCLYLYLALLPQNHKLIHELAAVYTEAIADIKRTVLRVIEQPIRGMGMNSPELLLLVENCPKGAETLVTRCLHSLTDKVPPSPELVKRVRDLYHKRLPDVRFLIPVLNGLEKKEVIQALPKLIKLNPIVVKEVFNRLLGTQHGEGNSALSPLNPGELLIALHNIDSVKCDMKSIIKATNLCFAERNVYTSEVLAVVMQQLMEQSPLPMLLMRTVIQSLTMYPRLGGFVMNILSRLIMKQVWKYPKVWEGFIKCCQRTKPQSFQVILQLPPQQLGAVFDKCPELREPLLAHVRSFTPHQQAHIPNSIMTILEASGKQEPEAKEAPAGPLEEDDLEPLTLAPAPAPRPPQDLIGLRLAQEKALKRQLEEEQKLKPGGVGAPSSSSPSPSPSARPGPPPSEEAMDFREEGPECETPGIFISMDDDSGLTEAALLDSSLEGPLPKETAAGGLTLKEERSPQTLAPVGEDAMKTPSPAAEDAREPEAKGNS | 2 | 1 | – | –
MPHOSPH10 (protein, UniProt O00566 1-681, looked up) U3 small nucleolar …: MAPQVWRRRTLERCLTEVGKATGRPECFLTIQEGLASKFTSLTKVLYDFNKILENGRIHGSPLQKLVIENFDDEQIWQQLELQNEPILQYFQNAVSETINDEDISLLPESEEQEREEDGSEIEADDKEDLEDLEEEEVSDMGNDDPEMGERAENSSKSDLRKSPVFSDEDSDLDFDISKLEQQSKVQNKGQGKPREKSIVDDKFFKLSEMEAYLENIEKEEERKDDNDEEEEDIDFFEDIDSDEDEGGLFGSKKLKSGKSSRNLKYKDFFDPVESDEDITNVHDDELDSNKEDDEIAEEEAEELSISETDEDDDLQENEDNKQHKESLKRVTFALPDDAETEDTGVLNVKKNSDEVKSSFEKRQEKMNEKIASLEKELLEKKPWQLQGEVTAQKRPENSLLEETLHFDHAVRMAPVITEETTLQLEDIIKQRIRDQAWDDVVRKEKPKEDAYEYKKRLTLDHEKSKLSLAEIYEQEYIKLNQQKTAEEENPEHVEIQKMMDSLFLKLDALSNFHFIPKPPVPEIKVVSNLPAITMEEVAPVSVSDAALLAPEEIKEKNKAGDIKTAAEKTATDKKRERRKKKYQKRMKIKEKEKRRKLLEKSSVDQAGKYSKTVASEKLKQLTKTGKASFIKDEGKDKALKSSQAFFSKLQDQVKMQINDAKKTEKKKKKRQDISVHKLKL | 2 | 1 | – | –
TMEM109 (protein) QSRRDFAPPGQQKREAPVDVLTQIGRSVRGTLDAWIGPETMHLVSESSSQVLWAISSAISVAFFALSGIAAQLLNALGLAGDYLAQGLKLSPGQVQTFLLWGAGALVVYWLLSLLLGLVLALLGRILWGLKLVIFLAGFVALMRSVPDPSTRALLLLALLILYALLSRLTGSRASGAQLEAKVRGLERQVEELRWRQRRAAKGARSVEEE | 2 | 1 | – | –
POSTN (protein, UniProt Q15063 22-836, looked up) Periostin: NNHYDKILAHSRIRGRDQGPNVCALQQILGTKKKYFSTCKNWYKKSICGQKTTVLYECCPGYMRMEGMKGCPAVLPIDHVYGTLGIVGATTTQRYSDASKLREEIEGKGSFTYFAPSNEAWDNLDSDIRRGLESNVNVELLNALHSHMINKRMLTKDLKNGMIIPSMYNNLGLFINHYPNGVVTVNCARIIHGNQIATNGVVHVIDRVLTQIGTSIQDFIEAEDDLSSFRAAAITSDILEALGRDGHFTLFAPTNEAFEKLPRGVLERIMGDKVASEALMKYHILNTLQCSESIMGGAVFETLEGNTIEIGCDGDSITVNGIKMVNKKDIVTNNGVIHLIDQVLIPDSAKQVIELAGKQQTTFTDLVAQLGLASALRPDGEYTLLAPVNNAFSDDTLSMDQRLLKLILQNHILKVKVGLNELYNGQILETIGGKQLRVFVYRTAVCIENSCMEKGSKQGRNGAIHIFREIIKPAEKSLHEKLKQDKRFSTFLSLLEAADLKELLTQPGDWTLFVPTNDAFKGMTSEEKEILIRDKNALQNIILYHLTPGVFIGKGFEPGVTNILKTTQGSKIFLKEVNDTLLVNELKSKESDIMTTNGVIHVVDKLLYPADTPVGNDQLLEILNKLIKYIQIKFVRGSTFKEIPVTVYTTKIITKVVEPKIKVIEGSLQPIIKTEGPTLTKVKIEGEPEFRLIKEGETITEVIHGEPIIKKYTKIIDGVPVEITEKETREERIITGPEIKYTRISTGGGETEETLKKLLQEEVTKVTKFIEGGDGHLFEDEEIKRLLQGDTPVRKLQANKKVQGSRRRLREGRSQ | 2 | 1 | 1 | 1
SRSF4 (protein, UniProt Q08170 1-494, looked up) Serine/arginine-rich splicing …: MPRVYIGRLSYQARERDVERFFKGYGKILEVDLKNGYGFVEFDDLRDADDAVYELNGKDLCGERVIVEHARGPRRDGSYGSGRSGYGYRRSGRDKYGPPTRTEYRLIVENLSSRCSWQDLKDYMRQAGEVTYADAHKGRKNEGVIEFVSYSDMKRALEKLDGTEVNGRKIRLVEDKPGSRRRRSYSRSRSHSRSRSRSRHSRKSRSRSGSSKSSHSKSRSRSRSGSRSRSKSRSRSQSRSRSKKEKSRSPSKEKSRSRSHSAGKSRSKSKDQAEEKIQNNDNVGKPKSRSPSRHKSKSKSRSRSQERRVEEEKRGSVSRGRSQEKSLRQSRSRSRSKGGSRSRSRSRSKSKDKRKGRKRSREESRSRSRSRSKSERSRKRGSKRDSKAGSSKKKKKEDTDRSQSRSPSRSVSKEREHAKSESSQREGRGESENAGTNQETRSRSRSNSKSKPNLPSESRSRSKSASKTRSRSKSRSRSASRSPSRSRSRSHSRS | 2 | 1 | – | –
TMEM165 (protein, UniProt Q9HC07 34-324, looked up) Putative divalent …: GPDEDLSHRNKEPPAPAQQLQPQPVAVQGPEPARVEKIFTPAAPVHTNKEDPATQTNLGFIHAFVAAISVIIVSELGDKTFFIAAIMAMRYNRLTVLAGAMLALGLMTCLSVLFGYATTVIPRVYTYYVSTVLFAIFGIRMLREGLKMSPDEGQEELEEVQAELKKKDEEFQRTKLLNGPGDVETGTSITVPQKKWLHFISPIFVQALTLTFLAEWGDRSQLTTIVLAAREDPYGVAVGGTVGHCLCTGLAVIGGRMIAQKISVRTVTIIGGIVFLAFAFSALFISPDSGF | 1 | 1 | – | –
EEF1B2 (protein, UniProt P24534 2-225, looked up) Elongation factor 1-beta: GFGDLKSPAGLQVLNDYLADKSYIEGYVPSQADVAVFEAVSSPPPADLCHALRWYNHIKSYEKEKASLPGVKKALGKYGPADVEDTTGSGATDSKDDDDIDLFGSDDEEESEEAKRLREERLAQYESKKAKKPALVAKSSILLDVKPWDDETDMAKLEECVRSIQADGLVWGSSKLVPVGYGIKKLQIQCVVEDDKVGTDMLEEQITAFEDYVQSMDVAAFNKI | 1 | 1 | – | –
SCAMP3 (protein, UniProt O14828 1-347, looked up) Secretory carrier-associated …: MAQSRDGGNPFAEPSELDNPFQDPAVIQHRPSRQYATLDVYNPFETREPPPAYEPPAPAPLPPPSAPSLQPSRKLSPTEPKNYGSYSTQASAAAATAELLKKQEELNRKAEELDRRERELQHAALGGTATRQNNWPPLPSFCPVQPCFFQDISMEIPQEFQKTVSTMYYLWMCSTLALLLNFLACLASFCVETNNGAGFGLSILWVLLFTPCSFVCWYRPMYKAFRSDSSFNFFVFFFIFFVQDVLFVLQAIGIPGWGFSGWISALVVPKGNTAVSVLMLLVALLFTGIAVLGIVMLKRIHSLYRRTGASFQKAQQEFAAGVFSNPAVRTAAANAAAGAAENAFRAP | 1 | 1 | – | –
DHX30 (protein, UniProt Q7L2E3 1-1194, looked up) ATP-dependent RNA helicase …: MFSLDSFRKDRAQHRQRQCKLPPPRLPPMCVNPTPGGTISRASRDLLKEFPQPKNLLNSVIGRALGISHAKDKLVYVHTNGPKKKKVTLHIKWPKSVEVEGYGSKKIDAERQAAAAACQLFKGWGLLGPRNELFDAAKYRVLADRFGSPADSWWRPEPTMPPTSWRQLNPESIRPGGPGGLSRSLGREEEEDEEEELEEGTIDVTDFLSMTQQDSHAPLRDSRGSSFEMTDDDSAIRALTQFPLPKNLLAKVIQIATSSSTAKNLMQFHTVGTKTKLSTLTLLWPCPMTFVAKGRRKAEAENKAAALACKKLKSLGLVDRNNEPLTHAMYNLASLRELGETQRRPCTIQVPEPILRKIETFLNHYPVESSWIAPELRLQSDDILPLGKDSGPLSDPITGKPYVPLLEAEEVRLSQSLLELWRRRGPVWQEAPQLPVDPHRDTILNAIEQHPVVVISGDTGCGKTTRIPQLLLERYVTEGRGARCNVIITQPRRISAVSVAQRVSHELGPSLRRNVGFQVRLESKPPSRGGALLFCTVGILLRKLQSNPSLEGVSHVIVDEVHERDVNTDFLLILLKGLQRLNPALRLVLMSATGDNERFSRYFGGCPVIKVPGFMYPVKEHYLEDILAKLGKHQYLHRHRHHESEDECALDLDLVTDLVLHIDARGEPGGILCFLPGWQEIKGVQQRLQEALGMHESKYLILPVHSNIPMMDQKAIFQQPPVGVRKIVLATNIAETSITINDIVHVVDSGLHKEERYDLKTKVSCLETVWVSRANVIQRRGRAGRCQSGFAYHLFPRSRLEKMVPFQVPEILRTPLENLVLQAKIHMPEKTAVEFLSKAVDSPNIKAVDEAVILLQEIGVLDQREYLTTLGQRLAHISTDPRLAKAIVLAAIFRCLHPLLVVVSCLTRDPFSSSLQNRAEVDKVKALLSHDSGSDHLAFVRAVAGWEEVLRWQDRSSRENYLEENLLYAPSLRFIHGLIKQFSENIYEAFLVGKPSDCTLASAQCNEYSEEEELVKGVLMAGLYPNLIQVRQGKVTRQGKFKPNSVTYRTKSGNILLHKSTINREATRLRSRWLTYFMAVKSNGSVFVRDSSQVHPLAVLLLTDGDVHIRDDGRRATISLSDSDLLRLEGDSRTVRLLKELRRALGRMVERSLRSELAALPPSVQEEHGQLLALLAELLRGPCGSFDVRKTADD | 1 | 1 | – | –
